# Test results from the supplement of paper PMC11732987, “Enantioselective OTUD7B fragment discovery through chemoproteomics screening and high-throughput optimisation” (Communications Chemistry, 2025).
# By UniProt entry, the sequences of proteins in these tests, tags left out. Where a name states a change or a piece, a line headed by the entry shows the natural chain unless it says otherwise. Residues count along the entry.
# UniProt O14733, 113-136: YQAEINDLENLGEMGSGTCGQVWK
# UniProt O94822: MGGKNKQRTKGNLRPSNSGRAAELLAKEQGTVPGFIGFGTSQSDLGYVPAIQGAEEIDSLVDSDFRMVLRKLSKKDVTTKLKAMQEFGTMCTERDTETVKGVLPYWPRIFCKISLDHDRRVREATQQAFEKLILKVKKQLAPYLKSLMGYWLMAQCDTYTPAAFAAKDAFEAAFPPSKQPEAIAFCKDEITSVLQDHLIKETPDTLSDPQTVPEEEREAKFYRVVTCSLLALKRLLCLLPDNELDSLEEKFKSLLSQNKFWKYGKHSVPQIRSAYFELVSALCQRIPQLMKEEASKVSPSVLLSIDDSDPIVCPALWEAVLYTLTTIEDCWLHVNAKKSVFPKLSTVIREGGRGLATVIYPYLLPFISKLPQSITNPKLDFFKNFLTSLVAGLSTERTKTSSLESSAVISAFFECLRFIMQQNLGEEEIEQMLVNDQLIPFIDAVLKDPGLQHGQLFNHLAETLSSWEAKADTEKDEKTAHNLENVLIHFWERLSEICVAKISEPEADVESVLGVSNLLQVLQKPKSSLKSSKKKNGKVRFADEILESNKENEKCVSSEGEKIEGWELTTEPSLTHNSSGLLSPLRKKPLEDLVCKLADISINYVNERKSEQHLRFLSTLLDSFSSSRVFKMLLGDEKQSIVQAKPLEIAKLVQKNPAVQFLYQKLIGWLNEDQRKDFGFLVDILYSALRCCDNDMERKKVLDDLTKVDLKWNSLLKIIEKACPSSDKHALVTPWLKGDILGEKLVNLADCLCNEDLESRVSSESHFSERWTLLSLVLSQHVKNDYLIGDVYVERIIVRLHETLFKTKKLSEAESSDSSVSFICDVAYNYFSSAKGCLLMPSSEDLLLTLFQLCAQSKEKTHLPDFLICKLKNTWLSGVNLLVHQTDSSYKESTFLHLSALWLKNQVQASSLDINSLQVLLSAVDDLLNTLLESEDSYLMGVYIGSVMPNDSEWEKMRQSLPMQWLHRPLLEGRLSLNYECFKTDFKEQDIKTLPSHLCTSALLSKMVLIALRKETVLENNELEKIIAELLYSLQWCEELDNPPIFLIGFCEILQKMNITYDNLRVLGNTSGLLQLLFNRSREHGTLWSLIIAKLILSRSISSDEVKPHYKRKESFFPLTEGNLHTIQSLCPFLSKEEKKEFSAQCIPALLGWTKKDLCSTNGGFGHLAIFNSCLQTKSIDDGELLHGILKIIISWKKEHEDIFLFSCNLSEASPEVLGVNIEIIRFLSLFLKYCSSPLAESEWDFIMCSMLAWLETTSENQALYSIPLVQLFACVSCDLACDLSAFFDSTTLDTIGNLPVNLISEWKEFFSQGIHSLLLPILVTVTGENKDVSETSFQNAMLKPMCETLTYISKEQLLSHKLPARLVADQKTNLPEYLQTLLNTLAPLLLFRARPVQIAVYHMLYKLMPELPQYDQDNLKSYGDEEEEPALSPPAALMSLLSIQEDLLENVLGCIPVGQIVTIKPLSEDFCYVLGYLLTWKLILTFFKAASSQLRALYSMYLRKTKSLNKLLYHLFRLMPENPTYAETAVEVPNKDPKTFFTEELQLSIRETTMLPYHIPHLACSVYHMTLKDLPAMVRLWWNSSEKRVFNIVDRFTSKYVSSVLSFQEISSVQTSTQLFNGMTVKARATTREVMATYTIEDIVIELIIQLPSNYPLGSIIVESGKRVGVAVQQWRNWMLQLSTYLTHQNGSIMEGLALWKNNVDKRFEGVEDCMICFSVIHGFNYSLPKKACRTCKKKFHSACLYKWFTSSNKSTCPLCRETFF
# UniProt O60318: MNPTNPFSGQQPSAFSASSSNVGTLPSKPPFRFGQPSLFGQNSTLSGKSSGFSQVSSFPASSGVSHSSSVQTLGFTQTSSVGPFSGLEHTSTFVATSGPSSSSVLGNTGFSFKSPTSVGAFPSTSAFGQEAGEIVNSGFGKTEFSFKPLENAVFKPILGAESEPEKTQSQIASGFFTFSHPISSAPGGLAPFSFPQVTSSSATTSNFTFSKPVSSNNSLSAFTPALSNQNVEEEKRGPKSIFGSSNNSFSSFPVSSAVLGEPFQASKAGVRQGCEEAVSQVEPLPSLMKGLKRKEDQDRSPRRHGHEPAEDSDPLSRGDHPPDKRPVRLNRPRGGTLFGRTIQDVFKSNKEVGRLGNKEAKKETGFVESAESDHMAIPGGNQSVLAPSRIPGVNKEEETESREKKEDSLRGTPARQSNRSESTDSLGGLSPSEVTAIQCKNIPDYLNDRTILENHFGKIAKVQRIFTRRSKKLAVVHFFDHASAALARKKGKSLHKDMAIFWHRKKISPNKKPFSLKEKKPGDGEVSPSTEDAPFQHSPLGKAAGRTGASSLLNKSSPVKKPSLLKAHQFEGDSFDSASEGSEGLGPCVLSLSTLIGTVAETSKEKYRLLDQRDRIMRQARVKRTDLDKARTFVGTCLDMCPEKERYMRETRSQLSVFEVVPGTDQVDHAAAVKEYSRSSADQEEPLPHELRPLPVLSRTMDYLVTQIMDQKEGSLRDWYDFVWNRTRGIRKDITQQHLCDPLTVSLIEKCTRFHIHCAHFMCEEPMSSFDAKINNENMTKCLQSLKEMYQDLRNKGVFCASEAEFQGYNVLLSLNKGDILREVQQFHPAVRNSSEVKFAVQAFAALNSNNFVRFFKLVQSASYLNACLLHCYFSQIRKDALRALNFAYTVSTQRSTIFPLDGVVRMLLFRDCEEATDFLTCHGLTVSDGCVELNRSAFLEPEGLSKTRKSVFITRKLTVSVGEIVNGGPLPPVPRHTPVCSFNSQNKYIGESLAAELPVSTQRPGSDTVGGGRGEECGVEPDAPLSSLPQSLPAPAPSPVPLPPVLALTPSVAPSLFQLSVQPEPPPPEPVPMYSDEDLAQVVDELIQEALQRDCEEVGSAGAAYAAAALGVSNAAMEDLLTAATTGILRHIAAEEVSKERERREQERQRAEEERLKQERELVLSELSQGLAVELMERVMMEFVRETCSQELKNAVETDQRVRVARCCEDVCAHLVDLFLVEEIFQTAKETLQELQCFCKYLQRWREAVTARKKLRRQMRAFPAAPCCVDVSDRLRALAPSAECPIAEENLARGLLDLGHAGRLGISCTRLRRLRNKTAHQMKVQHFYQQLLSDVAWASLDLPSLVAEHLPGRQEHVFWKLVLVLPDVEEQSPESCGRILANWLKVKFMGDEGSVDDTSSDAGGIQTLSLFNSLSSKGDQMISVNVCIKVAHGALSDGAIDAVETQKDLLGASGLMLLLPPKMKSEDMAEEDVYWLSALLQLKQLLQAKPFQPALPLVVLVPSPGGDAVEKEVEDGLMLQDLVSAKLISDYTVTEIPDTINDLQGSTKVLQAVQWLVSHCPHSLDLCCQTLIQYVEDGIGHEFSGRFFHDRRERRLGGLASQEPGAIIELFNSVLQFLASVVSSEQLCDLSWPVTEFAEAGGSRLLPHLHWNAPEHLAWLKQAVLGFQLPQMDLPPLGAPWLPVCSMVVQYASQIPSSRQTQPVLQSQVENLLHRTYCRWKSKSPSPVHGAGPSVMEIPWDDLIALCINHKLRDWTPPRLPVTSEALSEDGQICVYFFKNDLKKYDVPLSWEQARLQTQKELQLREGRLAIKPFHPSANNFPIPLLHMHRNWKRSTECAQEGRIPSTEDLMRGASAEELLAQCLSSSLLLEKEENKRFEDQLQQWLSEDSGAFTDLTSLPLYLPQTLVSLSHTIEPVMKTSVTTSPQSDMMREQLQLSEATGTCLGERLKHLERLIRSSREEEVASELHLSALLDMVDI
# UniProt Q96AG4: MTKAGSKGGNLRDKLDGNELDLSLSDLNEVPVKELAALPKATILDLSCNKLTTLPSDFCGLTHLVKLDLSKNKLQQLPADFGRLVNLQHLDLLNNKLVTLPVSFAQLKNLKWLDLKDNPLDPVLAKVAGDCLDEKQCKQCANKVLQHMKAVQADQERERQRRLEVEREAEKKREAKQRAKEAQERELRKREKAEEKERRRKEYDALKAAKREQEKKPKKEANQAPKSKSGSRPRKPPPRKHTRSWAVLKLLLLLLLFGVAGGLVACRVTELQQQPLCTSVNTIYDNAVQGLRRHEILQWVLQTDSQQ
# UniProt Q9BX40: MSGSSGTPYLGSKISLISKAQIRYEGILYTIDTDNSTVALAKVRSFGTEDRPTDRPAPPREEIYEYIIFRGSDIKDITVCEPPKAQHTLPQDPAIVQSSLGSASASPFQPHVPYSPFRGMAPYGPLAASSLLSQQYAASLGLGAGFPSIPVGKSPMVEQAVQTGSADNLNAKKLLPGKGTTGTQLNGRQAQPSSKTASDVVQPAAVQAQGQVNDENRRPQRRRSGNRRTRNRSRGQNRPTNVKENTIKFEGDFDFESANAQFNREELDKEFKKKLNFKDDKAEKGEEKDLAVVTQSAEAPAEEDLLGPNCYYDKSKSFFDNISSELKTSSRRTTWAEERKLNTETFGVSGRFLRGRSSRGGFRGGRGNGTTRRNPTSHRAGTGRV
# UniProt P49137, whole entry, looked up: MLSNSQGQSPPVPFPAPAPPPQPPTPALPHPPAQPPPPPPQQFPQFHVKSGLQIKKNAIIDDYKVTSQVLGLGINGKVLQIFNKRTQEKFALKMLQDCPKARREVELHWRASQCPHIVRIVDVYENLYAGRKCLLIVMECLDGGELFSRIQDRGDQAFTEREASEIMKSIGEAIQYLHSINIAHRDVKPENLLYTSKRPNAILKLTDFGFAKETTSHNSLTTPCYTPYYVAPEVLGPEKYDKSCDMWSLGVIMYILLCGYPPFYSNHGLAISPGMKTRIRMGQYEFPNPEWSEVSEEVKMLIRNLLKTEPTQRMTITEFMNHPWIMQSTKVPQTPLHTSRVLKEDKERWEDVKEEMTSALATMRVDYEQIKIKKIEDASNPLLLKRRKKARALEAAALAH
# UniProt P49137, 213-239: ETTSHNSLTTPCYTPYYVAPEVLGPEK
# UniProt Q8IVS2: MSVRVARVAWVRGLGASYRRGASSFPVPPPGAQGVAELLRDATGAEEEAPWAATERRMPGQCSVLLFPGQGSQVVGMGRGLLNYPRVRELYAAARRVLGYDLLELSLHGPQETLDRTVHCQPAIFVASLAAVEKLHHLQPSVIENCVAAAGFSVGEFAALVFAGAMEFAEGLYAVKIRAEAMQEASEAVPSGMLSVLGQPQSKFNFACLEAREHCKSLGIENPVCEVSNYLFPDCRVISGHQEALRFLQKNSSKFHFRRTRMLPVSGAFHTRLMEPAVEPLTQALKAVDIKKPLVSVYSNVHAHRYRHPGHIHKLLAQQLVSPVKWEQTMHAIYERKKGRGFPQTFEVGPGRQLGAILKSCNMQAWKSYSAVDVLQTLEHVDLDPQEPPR
# UniProt Q16644: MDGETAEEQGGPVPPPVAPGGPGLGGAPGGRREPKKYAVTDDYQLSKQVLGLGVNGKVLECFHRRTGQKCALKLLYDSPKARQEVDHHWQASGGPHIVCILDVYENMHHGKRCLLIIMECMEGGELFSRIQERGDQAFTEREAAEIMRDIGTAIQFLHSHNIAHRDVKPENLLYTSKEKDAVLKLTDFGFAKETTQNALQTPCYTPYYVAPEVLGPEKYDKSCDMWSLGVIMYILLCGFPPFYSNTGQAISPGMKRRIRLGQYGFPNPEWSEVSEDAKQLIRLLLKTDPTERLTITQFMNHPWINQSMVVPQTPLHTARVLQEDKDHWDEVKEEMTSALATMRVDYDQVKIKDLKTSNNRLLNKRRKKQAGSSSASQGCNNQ
# UniProt Q9ULC4: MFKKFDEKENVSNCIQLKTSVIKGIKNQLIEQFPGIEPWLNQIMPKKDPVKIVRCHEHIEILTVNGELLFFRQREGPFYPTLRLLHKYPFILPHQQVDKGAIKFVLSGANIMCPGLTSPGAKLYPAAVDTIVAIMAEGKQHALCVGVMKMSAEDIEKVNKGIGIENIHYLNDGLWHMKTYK
# UniProt O95372: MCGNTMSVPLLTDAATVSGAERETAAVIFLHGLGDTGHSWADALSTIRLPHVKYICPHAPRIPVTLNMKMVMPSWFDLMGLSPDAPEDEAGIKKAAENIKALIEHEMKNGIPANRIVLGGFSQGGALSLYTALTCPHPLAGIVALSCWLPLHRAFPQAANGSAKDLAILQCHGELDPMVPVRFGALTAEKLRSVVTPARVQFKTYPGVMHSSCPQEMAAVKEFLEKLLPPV
# UniProt Q9UDY8, 311-341: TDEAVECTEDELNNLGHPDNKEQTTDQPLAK
# UniProt P45983: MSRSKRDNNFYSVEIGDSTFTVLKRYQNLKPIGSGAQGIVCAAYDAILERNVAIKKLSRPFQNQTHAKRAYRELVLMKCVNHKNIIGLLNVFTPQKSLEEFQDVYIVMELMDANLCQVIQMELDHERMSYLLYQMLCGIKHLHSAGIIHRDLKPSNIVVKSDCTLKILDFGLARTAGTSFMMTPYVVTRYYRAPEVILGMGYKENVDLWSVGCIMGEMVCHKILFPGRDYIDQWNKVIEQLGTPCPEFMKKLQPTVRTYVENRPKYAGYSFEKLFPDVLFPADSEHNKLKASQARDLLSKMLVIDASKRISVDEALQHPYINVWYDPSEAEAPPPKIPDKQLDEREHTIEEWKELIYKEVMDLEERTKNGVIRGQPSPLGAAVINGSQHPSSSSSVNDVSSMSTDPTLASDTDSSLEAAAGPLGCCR
# Some of the results follow. The data scatter; read single values as rough.
# Compound: ClCC(=O)N[C@@H]1CCCc2ccccc12
# Assay: log2 mean competition ratio of IA-DTB cysteine labelling (DMSO/compound) (log2 ratio); higher = stronger cysteine engagement by compound
# Conditions: 50 µM; treatment time: 4 h; cell line lysate: HEK293T
# Procedure: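 IA-DTB competitive cysteine chemoproteomics in HEK293T RIPA lysate. Lysates were treated with compound 29 or 30 at 50 or 200 µM for 4 h, then IA-DTB (500 µM, 1 h), trypsin-digested, NeutrAvidin-enriched and analysed by diaPASEF. Competition ratio = intensity DMSO / intensity compound (n=4 treated, n=64 DMSO); binding: mean log2 CR ≥ 1 and p ≤ 0.05 plus QC filters. Target is the cysteine site.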
row,Target,log2 mean competition ratio
1,MAP2K7 C131 (UniProt O14733),0.0266
2,LZTS2 C74 (UniProt Q9BRK4),0.452
3,MARK2 C166,0.0504
4,LTN1 C595 (UniProt O94822),-0.189
5,MCM3AP C1285 (UniProt O60318),-0.127
6,MAGI3 C1266 (UniProt Q5TCQ9),0.0341
7,LRRC59 C48 (UniProt Q96AG4),-0.031
8,LSM14B C80 (UniProt Q9BX40),-0.188

# Same assay, conditions: 200 µM; treatment time: 4 h; cell line lysate: HEK293T
row,Target,log2 mean competition ratio
1,LYAR C51 (UniProt Q9NX58),0.017
2,MACF1 C6646,0.0397
3,LRRFIP1 C750 (UniProt Q32MZ4),0.069
4,MAP3K4 C1484 (UniProt Q9Y6R4),-0.183
5,MAPKAPK2 C98 (UniProt P49137),-0.067
6,MCAT C361 (UniProt Q8IVS2),0.0518
7,MAPKAPK2 C224 (UniProt P49137),-0.0369
8,MAPKAPK3 C379 (UniProt Q16644),0.0409
9,LTN1 C981 (UniProt O94822),0.069
10,MCTS1 C14 (UniProt Q9ULC4),-0.13
11,MBIP C243 (UniProt Q9NS73),0.108
12,MAD1L1 C134 (UniProt Q9Y6D9),0.0522
13,MAP3K4 C61 (UniProt Q9Y6R4),0.359
14,MAF C305,0.43
15,LYPLA2 C56 (UniProt O95372),-0.165
16,MAP3K21 C281,-0.129
17,MALT1 C317 (UniProt Q9UDY8),0.386
18,MAP3K15 C1227 (UniProt Q6ZN16),-0.219
19,MAPK8 C245 (UniProt P45983),0.37
20,MARK4 C459 (UniProt Q96L34),0.162

# 2 records drawn at random from the list so far:
row,Target,log2 mean competition ratio
10,MCTS1 C14 (UniProt Q9ULC4),-0.13
11,MBIP C243 (UniProt Q9NS73),0.108
